Test results taken from PMC12519263 (ACS Pharmacology & Translational Science, 2025).
Strings that start with PEPTIDE1 are HELM notation: dots part the residues, brackets hold end groups and non-standard residues.

Assay: general procedure: peptide synthesis; H-Gly-2-ClTrt resin (Novabiochem); HATU, HOAt, DIPEA (conjugation)
Details: conjugation step

Substance	final HPLC purity (700 nm) [%]	conjugation yield (two-step from 10) [% two-step yield from 10%]	final purity (method not given) (HPLC) [%]
PEPTIDE1{[Amp].L.R.G.D.L}|PEPTIDE2{[ZW800-1].[Ahx]}$PEPTIDE1,PEPTIDE1,1:R1-6:R2|PEPTIDE1,PEPTIDE2,1:R3-2:R2$$$V2.0	>98	55	–
PEPTIDE1{[Amp].L.R.G.D.L}|CHEM1{[TzPEG3Nint]}$PEPTIDE1,PEPTIDE1,1:R1-6:R2|PEPTIDE1,CHEM1,1:R3-1:R1$$$V2.0	–	–	>99.5
